These are yes or no findings as the source states them, for the method shown. Binding seen in cells or lysates may run through a third protein. Some entries that bind do so weakly or less than the wild type.

Sequences of proteins named here, by UniProt entry; tags and fusion partners are left off. A change or cut given only in a name is not applied to a line headed by its entry. A line that says so, or that is headed by a name, gives the form on record, which may keep a tag or linker.
SERCA2a, endogenous, mouse heart (O55143-2, form named): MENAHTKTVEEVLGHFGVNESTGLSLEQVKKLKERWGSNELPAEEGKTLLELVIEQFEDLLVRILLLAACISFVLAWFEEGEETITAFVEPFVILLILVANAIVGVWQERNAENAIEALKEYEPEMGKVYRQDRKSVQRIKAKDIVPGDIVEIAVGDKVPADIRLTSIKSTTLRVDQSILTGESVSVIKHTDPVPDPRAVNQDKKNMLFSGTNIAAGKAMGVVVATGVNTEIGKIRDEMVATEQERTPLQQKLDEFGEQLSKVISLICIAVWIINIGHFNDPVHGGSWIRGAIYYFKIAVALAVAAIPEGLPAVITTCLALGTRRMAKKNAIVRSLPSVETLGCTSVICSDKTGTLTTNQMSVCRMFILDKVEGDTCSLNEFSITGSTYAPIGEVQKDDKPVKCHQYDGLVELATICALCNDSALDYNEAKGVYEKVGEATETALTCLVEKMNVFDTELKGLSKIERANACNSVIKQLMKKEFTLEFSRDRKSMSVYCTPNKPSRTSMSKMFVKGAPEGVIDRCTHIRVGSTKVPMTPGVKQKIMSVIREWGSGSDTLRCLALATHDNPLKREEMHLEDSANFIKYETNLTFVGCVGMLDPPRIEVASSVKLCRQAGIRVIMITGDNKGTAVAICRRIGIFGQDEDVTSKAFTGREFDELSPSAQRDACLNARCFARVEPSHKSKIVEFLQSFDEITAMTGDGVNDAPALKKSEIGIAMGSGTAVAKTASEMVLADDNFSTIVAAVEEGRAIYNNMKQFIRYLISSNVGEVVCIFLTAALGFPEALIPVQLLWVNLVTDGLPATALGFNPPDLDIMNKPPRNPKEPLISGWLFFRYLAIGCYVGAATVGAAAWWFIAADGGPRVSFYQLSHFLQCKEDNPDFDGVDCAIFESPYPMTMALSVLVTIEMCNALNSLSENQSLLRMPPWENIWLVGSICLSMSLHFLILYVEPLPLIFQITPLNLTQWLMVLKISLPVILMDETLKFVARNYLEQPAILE
UniProt P84078: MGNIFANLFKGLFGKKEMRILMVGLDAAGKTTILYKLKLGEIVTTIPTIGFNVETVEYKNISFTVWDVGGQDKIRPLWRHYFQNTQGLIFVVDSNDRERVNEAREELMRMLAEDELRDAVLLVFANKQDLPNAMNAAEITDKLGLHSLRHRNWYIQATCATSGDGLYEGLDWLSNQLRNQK
UniProt Q9EPJ9: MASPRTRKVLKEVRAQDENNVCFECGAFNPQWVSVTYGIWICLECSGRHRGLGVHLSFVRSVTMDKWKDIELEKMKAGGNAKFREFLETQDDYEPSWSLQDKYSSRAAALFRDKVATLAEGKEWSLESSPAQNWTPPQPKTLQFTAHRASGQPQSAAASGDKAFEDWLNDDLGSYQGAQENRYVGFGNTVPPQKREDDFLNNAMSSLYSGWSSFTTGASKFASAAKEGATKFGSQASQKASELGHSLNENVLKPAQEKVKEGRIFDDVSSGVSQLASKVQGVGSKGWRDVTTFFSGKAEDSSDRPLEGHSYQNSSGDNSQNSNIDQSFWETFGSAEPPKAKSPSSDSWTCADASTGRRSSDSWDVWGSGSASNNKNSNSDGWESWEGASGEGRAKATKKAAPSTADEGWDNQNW

This experiment deals with T1, phospholamban (PLN), endogenous, mouse heart (mouse (endogenous in heart tissue)) (UniProt P61014).
T1 sequence: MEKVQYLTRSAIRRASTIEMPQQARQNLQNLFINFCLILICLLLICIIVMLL
The experiment can be described thus: co-IP; endogenous PLN precipitated from mouse cardiac muscle post nuclear extract with anti-PLN antibody 1D11 (Seize-X Protein A Immunoprecipitation Kit), western blot of the eluate; IgG beads alone as control.

For the substance “SERCA2a, endogenous, mouse heart (from UniProt O55143-2 1-998)”, the binding result is “binds”.
Take “ARF1, endogenous, mouse heart (from UniProt P84078 1-181)”: the binding result is given as “binds”.
As for “ARFGAP1, endogenous, mouse heart (from UniProt Q9EPJ9 1-414)”, the entry is “binds”.

For the origin of these results see PMC2901339.
